Test results: EP3906926A1, “PROLINE HYDROXYLASE INHIBITORS FOR USE IN THE SKELETAL MUSCLE REGENERATION” (Policlinico San Donato S.p.A.- Istituto di Ricovero e Cura …, priority 2020, dated 2021)
For at least one compound, name, drawing or mass did not settle the structure.

Tested on: C57Bl/6N mice
Assay: Cardiotoxin-induced muscle regeneration in mice
Format: in vivo
[1] = CD31 staining, 10 mg/kg i.p., seven days from the muscle injury, vs control mice

Question: What does the source list for `Cc1nc(C(=O)NCC(=O)O)c(O)c2ccc(Oc3ccccc3)cc12` [FG-4592, Roxadustat]?
Answer: density of capillaries [1]: did not significantly modify; number of capillaries per regenerating fibers [1]: did not significantly modify; CSA and minimal Feret diameter distribution (single i.p. injection 10 mg/kg one day before CTX injury, 7 days after injury): shift of a frequency distribution toward bigger fibers; Hematoxylin/Eosin analyses of muscles (single i.p. injection 10 mg/kg one day before CTX injury, 7 days after injury, vs control muscles): no macroscopic difference
